Laboratory results: the supplement of paper PMC5949888
Most values lie at the floor of the assay. Slopes are relative: functional sequences can read slightly below zero.

system: Saccharomyces cerevisiae PS128 hsf1 delta, HSF1(1-493) fusion; test: growth estimate (transactivation domain function in HSF1 fusion, heat-shock survival) (a.u. (slope of normalised read count over time)); higher = stronger growth at 37°C, i.e. more transactivation activity; details: library: random library

Substance | growth estimate
HLCRGPSFHSESLHGICECG | < -0.25
KDRGRKASFTRTAQTLDPPE | < -0.25
LARASALSAR | < -0.25
LIESETHVIDKRCG | < -0.25
VQQAWSYRARLRPKRMSLTG | < -0.25
SRSESWGY | < -0.25
ALLLPRNLAGECGVKTQAAR | < -0.25
MTERVVREV | < -0.25
SGGVNV | < -0.25
SWACCAQLRAFLVATR | < -0.25
ALSFFSKRGSRQY | < -0.25
CSYRGRSSRGVGVAAFDDIV | < -0.25
TGLRSALMPAGGTDGSTRTA | < -0.25
TGYFRITGGRRGHGETGTCV | < -0.25
FSVAAAVNEKP | < -0.25
NCKFASLARCGSRVRCVAPT | < -0.25
FRGACRVASRNSMVSMCCVC | < -0.25
CGPA | < -0.25
SPNVGIR | < -0.25
YCEGLGTVLLFASAHP | < -0.25
EMLRVVRSWRIIRLRFFGHA | < -0.25
LSFL | < -0.25
VRPGLLSIRELDNHRSARFA | < -0.25
SFVRSSMPAAVQSPVWENVP | < -0.25
LSVRFYSGTDRSNAKPFSKG | < -0.25

Exported tab-delimited: entries from further up.
Substance	growth estimate
SGGVNV	< -0.25
SPNVGIR	< -0.25
VRPGLLSIRELDNHRSARFA	< -0.25

(cont.)

Substance | growth estimate
RTKFI | < -0.25
HNFTSRGICASFKVFSSGNP | -0.239
GCTNRSHHNLGIHRSTLGVR | < -0.25
VTSTLECWDGYVDWVWWM | < -0.25
FEGPWVKCTHLCGSRGHPAE | < -0.25
RKLSRTSIWSPLGSGKQLWV | < -0.25
IRFRRGE | < -0.25
APIVVCPSNGCYISDFRIPR | < -0.25
VDTFHSCATPGRGPRHRIHW | < -0.25
FVRCTVIFRTRVR | < -0.25
VAAVHSH | < -0.25
VLVLGEGGRVIPVSYT | < -0.25
DEDWGN | < -0.25
RRTLMSVKHCHNLSLMSRRP | < -0.25
DRVGFVNRAYLTCQPAQFRD | < -0.25
PPVYVRDIVIFFSRPLSPED | < -0.25
HPRGRCWALQIRQDAGAQCA | < -0.25
RGGLSIV | < -0.25
GPRMFSNIHRSCCNENCAHV | < -0.25
VGTWCRCSW | < -0.25
LSGSHAGQESTTSATISALL | -0.231
VHFRVAGELG | < -0.25
LGSSGALLGFHRLCGLLDE | < -0.25
GAIEIFSRGSNAHSPRDV | < -0.25
FPKARFDAINRAMCGTYLTN | < -0.25

Substance | growth estimate
YAVE | < -0.25
EATSFFFSSVQSVQLSLVRG | < -0.25
IKSAVRIYCFNRTPPDAQLR | < -0.25
SQWE | < -0.25
RVGMTRLIL | < -0.25
TGACMCLLTGLPPTWNVGNR | < -0.25
QGAGQSRPT | < -0.25
SVHMG | < -0.25
SVDAVHPGYT | < -0.25
ARGRSL | < -0.25
KTESPLGS | < -0.25
GKEWHVRHRGLAFWLPVAGP | < -0.25
GPW | < -0.25
LHAE | < -0.25
LNRSRPGVSHTSTIPASR | < -0.25
FLSVSMSVSVAHRVDIISPL | < -0.25
AKMQGWNVSLYRTRREPDNE | < -0.25
TRVRAACYVFQNIKNREQSG | < -0.25
EDGLCHNSSWCGGWLISIEG | < -0.25
IEKKVKPSTR | < -0.25
DICAIRTSHGVVTSTAVQGV | < -0.25
FFTWRECESDQARG | -0.207
VLPTAMAVLEGV | < -0.25
LFRVPRAKRHSG | < -0.25
VYQKRCQKFIGSHQPIERQP | < -0.25

Substance | growth estimate
LSSRLLLNPR | < -0.25
RQQDRVYGLRWGLAGSKWVG | -0.246
KLIPVRPVVRSQLY | < -0.25
KYRLRPVFEFTGF | < -0.25
VSSP | < -0.25
GERGRNGACSALPILAQRYG | < -0.25
RLTKGPHGY | < -0.25
TSRNGWAGFRVRPYWAGHLG | < -0.25
DKSRN | -0.243
WYVKNMYVQPRMSRVW | < -0.25
VWDKLQQSAAIDQVLSWTGL | < -0.25
PIQETLG | -0.245
RRPDPVGLDRFILSRKPRSA | < -0.25
AISVYPITNLSFSRTVECSG | < -0.25
APHSEGNSLLAY | < -0.25
LVTSEEARMKETPQVVVG | -0.25
IRRDLPPGPGYPSLRGAIST | < -0.25
YNCTCINVRLRLRELITEDP | < -0.25
AAEYIHESKRKSSRSRKVIA | < -0.25
FRGVGTTRKLFGESTIFISP | < -0.25
ILLFNKSVDIEHSVGIVERV | < -0.25
LNLSPLCRSYFSRT | < -0.25
PNVMLKE | -0.197
PSHGSDVGG | < -0.25
FQVCMP | < -0.25

Some of the entries so far, with tabs.
Substance	growth estimate
HLCRGPSFHSESLHGICECG	< -0.25
KDRGRKASFTRTAQTLDPPE	< -0.25
LIESETHVIDKRCG	< -0.25
VQQAWSYRARLRPKRMSLTG	< -0.25
ALLLPRNLAGECGVKTQAAR	< -0.25
MTERVVREV	< -0.25
SWACCAQLRAFLVATR	< -0.25
ALSFFSKRGSRQY	< -0.25
CSYRGRSSRGVGVAAFDDIV	< -0.25
TGLRSALMPAGGTDGSTRTA	< -0.25
FSVAAAVNEKP	< -0.25
NCKFASLARCGSRVRCVAPT	< -0.25
FRGACRVASRNSMVSMCCVC	< -0.25
YCEGLGTVLLFASAHP	< -0.25
EMLRVVRSWRIIRLRFFGHA	< -0.25
LSFL	< -0.25
RTKFI	< -0.25
GCTNRSHHNLGIHRSTLGVR	< -0.25
VTSTLECWDGYVDWVWWM	< -0.25
FEGPWVKCTHLCGSRGHPAE	< -0.25
VAAVHSH	< -0.25
RRTLMSVKHCHNLSLMSRRP	< -0.25
DRVGFVNRAYLTCQPAQFRD	< -0.25
HPRGRCWALQIRQDAGAQCA	< -0.25
VGTWCRCSW	< -0.25
LGSSGALLGFHRLCGLLDE	< -0.25
GAIEIFSRGSNAHSPRDV	< -0.25
FPKARFDAINRAMCGTYLTN	< -0.25
YAVE	< -0.25
IKSAVRIYCFNRTPPDAQLR	< -0.25
SQWE	< -0.25
RVGMTRLIL	< -0.25
TGACMCLLTGLPPTWNVGNR	< -0.25
QGAGQSRPT	< -0.25
SVHMG	< -0.25
SVDAVHPGYT	< -0.25
ARGRSL	< -0.25
GPW	< -0.25
LHAE	< -0.25
LNRSRPGVSHTSTIPASR	< -0.25
FLSVSMSVSVAHRVDIISPL	< -0.25
TRVRAACYVFQNIKNREQSG	< -0.25
FFTWRECESDQARG	-0.207
VYQKRCQKFIGSHQPIERQP	< -0.25
LSSRLLLNPR	< -0.25
RLTKGPHGY	< -0.25
DKSRN	-0.243
APHSEGNSLLAY	< -0.25
LVTSEEARMKETPQVVVG	-0.25
IRRDLPPGPGYPSLRGAIST	< -0.25
YNCTCINVRLRLRELITEDP	< -0.25
ILLFNKSVDIEHSVGIVERV	< -0.25
PNVMLKE	-0.197
FQVCMP	< -0.25

Remaining list, next part.

Substance | growth estimate
GFGRLIAHCSRWLLR | < -0.25
VRNNRVVVPSGRLT | < -0.25
GSVNLEVFDKCAEV | < -0.25
LQDLPEEWGQVQAPSLSKPN | < -0.25
YKTSVL | < -0.25
LFGPRPEYTIWAIGPTGPGA | < -0.25
RYNRGIRFGAPVDTRST | < -0.25
KGRSGRSDATKEAID | < -0.25
LHEAY | < -0.25
SAVVSGKAGTSRMLCVSEEW | < -0.25
RGEV | < -0.25
KQTWN | < -0.25
YCVASTIDQYEGE | < -0.25
EAPMPQVQRTLIRIAPPMLV | < -0.25
GIARWGRLWWAASRGLPP | < -0.25
DRYE | < -0.25
YQYGLVQFH | < -0.25
SKVLCISHSVLQAYAE | < -0.25
VRLFIWPRRDLVSRRWTTPI | < -0.25
LRLAGSFRCNITYMSPPCA | < -0.25
CYIKRLHSLIGKYYLRAFSF | < -0.25
QLNRVDPIIVRLSAPN | < -0.25
SGSVLGGALKLNQRQRENQR | < -0.25
RTRCSLEIDSMYTFFCKAHN | < -0.25
PTNRTLGPR | < -0.25

Substance | growth estimate
ERR | < -0.25
TSFLDA | < -0.25
KDGFRRVRKGQLKFKSTHQL | < -0.25
RKRPN | < -0.25
KSDGDSRCYQQKWRTRIPII | < -0.25
HNRWLDLESGQLKFDKAP | < -0.25
RYVEPD | < -0.25
NQSLAKWIDVDLKFLLRVLR | < -0.25
WAICGSVVASAAAPG | < -0.25
RESERQHQDAGH | < -0.25
VATALRDRP | < -0.25
EICYLVQRMLVRGELKFLCT | < -0.25
FVIKAPESLGRQSEFRISRC | < -0.25
TSSACSHGLYAIGIHEDWVY | < -0.25
ESRGRICAVLYVVS | < -0.25
EVR | < -0.25
TNRAERTVCAALAVESYRRA | < -0.25
LPVRALTSIT | < -0.25
ACWFWVKSSKCV | < -0.25
FTIVPFSEVNVGPGVHRT | < -0.25
TNKGTPTSGCRSSVVTVRHR | < -0.25
VTPGGPVTGKHSFCLLEFRE | < -0.25
VLRQLVVTQ | -0.243
GTLGTRPRIRAWFGLVVPGR | < -0.25
SGLIW | < -0.25

Substance | growth estimate
KAYCVSLGL | < -0.25
RKRSNSRDGAGWPVAVIRPL | < -0.25
VDTGHAGAQTSRIPTDTLSP | < -0.25
SGDMLPYVPVR | < -0.25
CNVSYQPRG | < -0.25
RQLVSVPIFVAGSRDNPVKD | < -0.25
CGIVESGFCRSRKCTLLSCC | < -0.25
QLGPFPVTVIVLLAALQEGL | < -0.25
VHARGGYGRPYPDNWLEY | < -0.25
RESDSRGQDLLC | < -0.25
TDTLRGET | < -0.25
TFANLPLYAVTRVRSPL | < -0.25
QRVLRGAIHYSMQSPL | < -0.25
SLNVELLEHYEVL | < -0.25
DVTVLYT | < -0.25
EVLTARALSYSRWLSRY | < -0.25
MSETRKTVRDADVS | < -0.25
PVDIGEHPRRRCVL | -0.167
PYYTHLVRR | < -0.25
VLGWLV | < -0.25
RTHGWISDGNRRIQVVAPIT | < -0.25
RTRGVRGLAFSMKGTTRQLG | < -0.25
RGVPCLLARADTDDAW | < -0.25
EGTGWGNI | < -0.25
LTGLGLSDRIKTCSGHGVVS | < -0.25

Substance | growth estimate
GARAPRNTEYQSPQPPWHHS | < -0.25
LVCVLTHVDRGIVYYKIFLR | < -0.25
DVRPDFPLRHCSGPTLVYVR | < -0.25
GRCRRYHDTV | < -0.25
HDTTS | < -0.25
GGGSSPVRA | < -0.25
WGQLDA | < -0.25
KRVCNALLRAG | < -0.25
GQAIVRASAFR | < -0.25
HGPLIDSRPFGCLCEEQVSA | < -0.25
KCRWVCSSGIFSIFVILCDE | < -0.25
GKLSHLVGGCVERERDDRIS | < -0.25
RHWVVSLKTRLTIA | < -0.25
DTCRAMKCSATILIHNLFSL | < -0.25
TESLDWSSSQTFYARTAPVL | < -0.25
PRGAIRARLH | < -0.25
VDGAPEK | < -0.25
YCKRAKW | < -0.25
ARRASGRWVLICVSMVTQW | < -0.25
GNVDMVEAC | < -0.25
RKVPRYTSRNE | < -0.25
SATMVRLT | < -0.25
HPRLIFDLYRRGIDENLIGE | < -0.25
HTFTHLAQEGCLLLSHVVQI | < -0.25
LQIRLSVISASEIVLRV | < -0.25
